# The other results are listed elsewhere or left out. These are further read-outs of the screen, such as a control signal, another cell line or another target. No call is given for them. The list favours compounds with an active or inconclusive main result. Potencies come from curve fits of mixed quality, noted in brackets.
# Assay: IkB Signaling
# Conditions: ABC-DLBCL IkBa-CBG/CBR dual luciferase ratio (green luciferase fused to IkBa over red control in OCI-Ly3 lymphoma cells), 4 h
# In short: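 In this assay, an IκBα–CBG68 fusion accumulates when IKK-driven degradation is blocked; native CBR normalizes for cell number. OCI-Ly3 cells were treated 4 h with compound and doxycycline, then green and red light read after Chroma-Glo addition.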
# [1] = measured here: control luc red channel unless noted
smiles,measurement,setting,value
CN1C(=O)c2[nH]nc(-c3ccc(F)cc3)c2C1c1cccc(O)c1 (stereo not drawn),AC50,[1],"39.8 µM [falling, single point]"
CSc1ccccc1NC(=O)Nc1ccccc1,AC50,[1],"10 µM [falling, partial curve]"
COc1cc(NC(=O)CN(c2cc(C)cc(C)c2)S(=O)(=O)c2c(C)[nH]c(=O)[nH]c2=O)cc(OC)c1,AC50,[1],"31.6 µM [falling, partial curve]"
Cc1ccc(-n2c(=O)c3ccc(C(=O)NCc4ccccc4Cl)cc3n(CC(=O)Nc3ccc(C)cc3C)c2=O)cc1,AC50,[1],"7.94 µM [falling, partial curve]"
Cc1cc(C)cc(C(=O)n2nc(C)c(S(=O)(=O)N3CCOCC3)c2C)c1,AC50,[1],"12.6 µM [falling, partial curve]"
Cc1ccc(Nc2cc(C)nc3nncn23)c(C)c1,AC50,[1],"7.94 µM [falling, single point]"
CCCC1(C(=O)O)NC(c2cccc(OC)c2O)C2C(=O)N(c3ccccc3)C(=O)C21 (stereo not drawn),AC50,[1],"12.6 µM [falling, partial curve]"
CCOc1ccc(-c2nc3ccccc3c(=O)o2)cc1,AC50,[1],"10 µM [falling, partial curve]"
COC(=O)c1c(C)[nH]c(C)c1C(=O)c1ccccc1Cc1ccccc1,AC50,[1],"31.6 µM [falling, partial curve]"
COc1cccc(CNC(=O)Cn2nc(N3CCN(c4ccccc4OC)CC3)ccc2=O)c1,AC50,[1],"1.26 µM [falling, full curve, poor fit]"
O=C(Nc1ccc(F)cc1)N(Cc1ccco1)Cc1cc2cc3c(cc2[nH]c1=O)OCO3,AC50,measured here: IkB-luc green channel,"7.94 µM [falling, partial curve]"
same,AC50,measured here: control luc red channel,"7.94 µM [falling, partial curve]"
CCCCOc1ccc(C2C(=O)N(C3CCCCC3)CC(=O)N2CCCC)cc1 (stereo not drawn),AC50,[1],"12.6 µM [falling, partial curve]"
COc1cc(NS(=O)(=O)c2ccc(C)cc2C)cc(OC)c1OC,AC50,[1],"31.6 µM [falling, partial curve]"
COc1ccccc1CN(Cc1cc2cc(C)cc(C)c2[nH]c1=O)Cc1nnnn1CC1CCCO1 (stereo not drawn),AC50,[1],"31.6 µM [falling, partial curve]"
CCCc1[nH]nc2c1C(C1CC=CCC1)C(C#N)=C(N)O2 (stereo not drawn),AC50,[1],"7.94 µM [falling, full curve, poor fit]"
Cc1ccc(OCCOCCn2c(-c3ccc(Cl)cc3)nc3ccccc3c2=O)cc1,AC50,[1],"7.94 µM [falling, full curve, poor fit]"
CCCCOc1ccc(-c2nnn(CC(=O)Nc3ncc(CC(=O)OCC)s3)n2)cc1,AC50,[1],"20 µM [falling, partial curve]"

# Already shown: entries from further up.
smiles,measurement,setting,value
O=C(Nc1ccc(F)cc1)N(Cc1ccco1)Cc1cc2cc3c(cc2[nH]c1=O)OCO3,AC50,measured here: IkB-luc green channel,"7.94 µM [falling, partial curve]"
same,AC50,measured here: control luc red channel,"7.94 µM [falling, partial curve]"
CCCCOc1ccc(C2C(=O)N(C3CCCCC3)CC(=O)N2CCCC)cc1 (stereo not drawn),AC50,[1],"12.6 µM [falling, partial curve]"
